Test results as given in the supplement of paper PMC10849652.
The list shows a part of the results.

The chains behind the UniProt entries cited, without tags or fusion partners. Where a name states a change or a piece, a line headed by the entry shows the natural chain unless it says otherwise.
UniProt Q99755: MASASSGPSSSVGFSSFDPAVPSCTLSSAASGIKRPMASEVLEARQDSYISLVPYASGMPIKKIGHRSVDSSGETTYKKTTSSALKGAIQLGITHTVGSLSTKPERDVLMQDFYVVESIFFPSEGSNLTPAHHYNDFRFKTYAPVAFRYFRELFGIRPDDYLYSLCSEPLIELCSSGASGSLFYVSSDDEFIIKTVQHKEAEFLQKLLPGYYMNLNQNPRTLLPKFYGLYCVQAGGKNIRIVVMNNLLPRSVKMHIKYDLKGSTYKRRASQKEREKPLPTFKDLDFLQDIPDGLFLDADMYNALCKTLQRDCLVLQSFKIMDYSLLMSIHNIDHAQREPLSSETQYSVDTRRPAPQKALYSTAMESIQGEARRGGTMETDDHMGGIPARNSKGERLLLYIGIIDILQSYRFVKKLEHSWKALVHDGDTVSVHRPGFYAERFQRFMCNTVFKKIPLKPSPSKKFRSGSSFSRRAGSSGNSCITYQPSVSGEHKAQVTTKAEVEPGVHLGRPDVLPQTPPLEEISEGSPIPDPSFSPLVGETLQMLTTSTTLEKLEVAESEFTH
UniProt Q9BTU6: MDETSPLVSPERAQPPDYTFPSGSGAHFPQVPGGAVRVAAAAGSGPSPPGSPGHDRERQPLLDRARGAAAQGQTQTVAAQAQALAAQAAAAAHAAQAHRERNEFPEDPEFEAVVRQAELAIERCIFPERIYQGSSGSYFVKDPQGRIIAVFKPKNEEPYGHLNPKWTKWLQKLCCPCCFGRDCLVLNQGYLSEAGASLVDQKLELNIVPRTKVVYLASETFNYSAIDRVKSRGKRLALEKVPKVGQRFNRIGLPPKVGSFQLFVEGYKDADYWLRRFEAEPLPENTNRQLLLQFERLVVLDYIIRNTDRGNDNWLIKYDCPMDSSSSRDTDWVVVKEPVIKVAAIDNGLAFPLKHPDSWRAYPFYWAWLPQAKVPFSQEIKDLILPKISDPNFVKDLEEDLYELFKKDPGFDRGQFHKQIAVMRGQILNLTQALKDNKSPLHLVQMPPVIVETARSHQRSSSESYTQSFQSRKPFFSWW
UniProt Q8N4L2: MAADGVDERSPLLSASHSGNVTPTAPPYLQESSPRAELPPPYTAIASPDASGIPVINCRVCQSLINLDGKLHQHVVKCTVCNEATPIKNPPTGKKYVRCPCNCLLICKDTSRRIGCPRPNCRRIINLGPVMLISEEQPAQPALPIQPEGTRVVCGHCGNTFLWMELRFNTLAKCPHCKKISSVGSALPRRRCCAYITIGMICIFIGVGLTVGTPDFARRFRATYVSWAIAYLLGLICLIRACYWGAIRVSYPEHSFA
UniProt O15067: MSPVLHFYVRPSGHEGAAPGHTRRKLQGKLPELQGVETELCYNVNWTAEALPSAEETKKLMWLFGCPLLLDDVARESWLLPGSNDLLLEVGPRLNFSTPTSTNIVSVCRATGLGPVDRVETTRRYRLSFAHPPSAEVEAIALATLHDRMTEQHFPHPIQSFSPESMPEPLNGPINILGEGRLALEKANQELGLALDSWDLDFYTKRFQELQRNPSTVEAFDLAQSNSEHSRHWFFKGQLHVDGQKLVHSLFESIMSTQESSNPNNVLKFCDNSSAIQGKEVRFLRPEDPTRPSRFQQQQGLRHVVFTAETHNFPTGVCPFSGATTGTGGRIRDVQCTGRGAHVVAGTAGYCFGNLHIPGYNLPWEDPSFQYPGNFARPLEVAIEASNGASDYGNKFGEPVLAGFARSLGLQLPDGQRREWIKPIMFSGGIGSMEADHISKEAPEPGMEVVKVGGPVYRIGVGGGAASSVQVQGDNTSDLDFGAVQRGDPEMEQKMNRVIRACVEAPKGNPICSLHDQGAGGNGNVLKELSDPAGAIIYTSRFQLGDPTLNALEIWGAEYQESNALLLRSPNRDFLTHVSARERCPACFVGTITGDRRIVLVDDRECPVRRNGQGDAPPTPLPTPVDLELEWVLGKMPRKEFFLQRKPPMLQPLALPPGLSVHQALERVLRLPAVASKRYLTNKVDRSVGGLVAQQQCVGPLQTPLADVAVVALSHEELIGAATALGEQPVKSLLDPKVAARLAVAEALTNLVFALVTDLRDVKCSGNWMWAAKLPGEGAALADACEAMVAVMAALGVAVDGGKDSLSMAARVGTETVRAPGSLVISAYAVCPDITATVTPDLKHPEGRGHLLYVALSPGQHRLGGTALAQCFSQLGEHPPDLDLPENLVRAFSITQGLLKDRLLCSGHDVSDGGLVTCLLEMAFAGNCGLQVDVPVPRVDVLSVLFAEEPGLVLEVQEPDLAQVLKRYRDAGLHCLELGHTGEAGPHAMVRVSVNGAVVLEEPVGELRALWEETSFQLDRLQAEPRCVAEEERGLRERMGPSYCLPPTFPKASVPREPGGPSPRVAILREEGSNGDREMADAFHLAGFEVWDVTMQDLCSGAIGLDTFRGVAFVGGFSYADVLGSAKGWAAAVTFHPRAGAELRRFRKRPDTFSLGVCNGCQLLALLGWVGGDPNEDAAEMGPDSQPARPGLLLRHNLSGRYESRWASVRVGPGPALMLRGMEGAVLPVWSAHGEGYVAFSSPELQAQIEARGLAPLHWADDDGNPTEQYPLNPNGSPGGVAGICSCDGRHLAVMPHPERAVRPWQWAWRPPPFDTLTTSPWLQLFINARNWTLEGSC
UniProt Q9Y237, whole entry, looked up: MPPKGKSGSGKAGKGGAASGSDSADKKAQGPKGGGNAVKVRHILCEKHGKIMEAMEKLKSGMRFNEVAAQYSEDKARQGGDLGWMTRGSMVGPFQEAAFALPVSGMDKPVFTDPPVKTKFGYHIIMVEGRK
UniProt Q8NEB9, whole entry, looked up: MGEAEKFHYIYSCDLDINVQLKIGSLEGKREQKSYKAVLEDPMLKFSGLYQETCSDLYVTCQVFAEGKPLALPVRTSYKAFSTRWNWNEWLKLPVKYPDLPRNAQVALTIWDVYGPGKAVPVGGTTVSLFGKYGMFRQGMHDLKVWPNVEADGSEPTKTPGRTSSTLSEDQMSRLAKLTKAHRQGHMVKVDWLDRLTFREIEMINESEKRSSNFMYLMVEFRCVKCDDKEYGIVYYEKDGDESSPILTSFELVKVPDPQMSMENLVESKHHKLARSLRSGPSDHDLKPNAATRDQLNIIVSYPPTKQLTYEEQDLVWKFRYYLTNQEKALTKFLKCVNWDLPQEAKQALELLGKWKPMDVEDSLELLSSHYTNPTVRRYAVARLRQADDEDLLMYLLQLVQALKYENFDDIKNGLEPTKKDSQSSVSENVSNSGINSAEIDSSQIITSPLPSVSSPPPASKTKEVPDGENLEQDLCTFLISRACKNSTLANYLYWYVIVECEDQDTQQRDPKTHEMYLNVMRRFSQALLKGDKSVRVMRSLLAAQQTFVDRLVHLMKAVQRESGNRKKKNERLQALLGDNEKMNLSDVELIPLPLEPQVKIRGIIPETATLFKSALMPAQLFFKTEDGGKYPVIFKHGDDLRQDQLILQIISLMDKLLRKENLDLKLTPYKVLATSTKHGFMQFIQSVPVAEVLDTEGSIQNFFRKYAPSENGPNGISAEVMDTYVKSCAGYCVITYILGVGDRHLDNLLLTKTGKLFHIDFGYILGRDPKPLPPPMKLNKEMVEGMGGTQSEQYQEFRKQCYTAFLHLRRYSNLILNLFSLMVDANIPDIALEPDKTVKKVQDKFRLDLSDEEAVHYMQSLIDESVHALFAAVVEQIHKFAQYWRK
UniProt Q6PCE3: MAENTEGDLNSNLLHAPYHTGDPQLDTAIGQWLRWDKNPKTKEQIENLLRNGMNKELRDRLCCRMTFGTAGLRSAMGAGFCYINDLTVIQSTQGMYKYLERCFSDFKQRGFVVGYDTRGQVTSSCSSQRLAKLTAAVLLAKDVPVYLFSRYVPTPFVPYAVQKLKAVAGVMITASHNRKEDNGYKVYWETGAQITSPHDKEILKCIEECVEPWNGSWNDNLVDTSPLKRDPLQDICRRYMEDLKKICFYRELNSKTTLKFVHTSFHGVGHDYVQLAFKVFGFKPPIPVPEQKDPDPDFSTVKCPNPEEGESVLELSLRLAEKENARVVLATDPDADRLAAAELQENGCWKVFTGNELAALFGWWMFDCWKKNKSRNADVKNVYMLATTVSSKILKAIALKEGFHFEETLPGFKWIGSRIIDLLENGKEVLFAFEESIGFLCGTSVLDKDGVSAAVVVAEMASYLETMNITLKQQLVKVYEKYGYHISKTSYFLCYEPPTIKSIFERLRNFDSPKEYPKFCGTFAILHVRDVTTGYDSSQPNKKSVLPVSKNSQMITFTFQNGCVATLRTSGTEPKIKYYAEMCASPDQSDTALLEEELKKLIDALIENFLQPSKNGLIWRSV
UniProt Q9NQP4, whole entry, looked up: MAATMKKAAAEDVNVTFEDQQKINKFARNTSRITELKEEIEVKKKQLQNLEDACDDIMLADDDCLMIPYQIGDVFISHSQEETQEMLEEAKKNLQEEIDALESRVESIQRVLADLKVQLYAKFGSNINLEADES
UniProt P18669: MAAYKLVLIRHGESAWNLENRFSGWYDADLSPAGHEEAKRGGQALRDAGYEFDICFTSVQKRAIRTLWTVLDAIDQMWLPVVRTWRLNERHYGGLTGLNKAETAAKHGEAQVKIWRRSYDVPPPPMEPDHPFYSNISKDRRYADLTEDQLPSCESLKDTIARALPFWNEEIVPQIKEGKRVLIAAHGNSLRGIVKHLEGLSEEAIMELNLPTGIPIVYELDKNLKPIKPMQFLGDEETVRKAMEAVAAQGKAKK
UniProt Q8N0Y7: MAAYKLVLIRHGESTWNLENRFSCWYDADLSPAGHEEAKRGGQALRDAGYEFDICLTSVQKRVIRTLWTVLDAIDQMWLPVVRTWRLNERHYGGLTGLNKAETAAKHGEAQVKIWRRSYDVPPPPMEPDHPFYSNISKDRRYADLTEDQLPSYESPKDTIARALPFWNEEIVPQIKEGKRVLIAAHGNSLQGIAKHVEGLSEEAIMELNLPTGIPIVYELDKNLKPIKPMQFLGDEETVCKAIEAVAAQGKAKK
UniProt P48426: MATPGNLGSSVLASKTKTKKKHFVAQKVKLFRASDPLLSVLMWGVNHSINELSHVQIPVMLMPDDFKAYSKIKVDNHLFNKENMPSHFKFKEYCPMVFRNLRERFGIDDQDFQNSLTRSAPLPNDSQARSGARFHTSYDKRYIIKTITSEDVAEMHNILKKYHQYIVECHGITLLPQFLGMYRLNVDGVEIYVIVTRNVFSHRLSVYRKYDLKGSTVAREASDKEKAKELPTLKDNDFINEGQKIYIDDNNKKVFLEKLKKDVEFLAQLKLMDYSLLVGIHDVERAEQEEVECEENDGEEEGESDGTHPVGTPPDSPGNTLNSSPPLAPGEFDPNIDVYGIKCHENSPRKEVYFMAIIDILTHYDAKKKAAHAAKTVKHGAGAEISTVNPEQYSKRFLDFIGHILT
UniProt Q96S52: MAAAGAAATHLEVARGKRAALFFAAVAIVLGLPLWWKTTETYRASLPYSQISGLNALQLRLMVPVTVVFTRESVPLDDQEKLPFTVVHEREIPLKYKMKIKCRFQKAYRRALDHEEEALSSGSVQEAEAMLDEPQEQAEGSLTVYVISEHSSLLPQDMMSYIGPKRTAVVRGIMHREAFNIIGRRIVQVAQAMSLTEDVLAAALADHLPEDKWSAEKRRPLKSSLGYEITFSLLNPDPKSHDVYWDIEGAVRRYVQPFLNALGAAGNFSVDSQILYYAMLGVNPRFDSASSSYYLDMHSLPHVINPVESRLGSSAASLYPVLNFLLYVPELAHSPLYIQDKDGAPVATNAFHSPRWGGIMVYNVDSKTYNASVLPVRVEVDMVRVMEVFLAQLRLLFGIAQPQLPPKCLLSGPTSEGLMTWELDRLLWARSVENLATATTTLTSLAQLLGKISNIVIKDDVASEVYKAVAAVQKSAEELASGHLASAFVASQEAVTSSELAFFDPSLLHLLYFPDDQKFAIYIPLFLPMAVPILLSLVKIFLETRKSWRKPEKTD
UniProt Q9BUL5: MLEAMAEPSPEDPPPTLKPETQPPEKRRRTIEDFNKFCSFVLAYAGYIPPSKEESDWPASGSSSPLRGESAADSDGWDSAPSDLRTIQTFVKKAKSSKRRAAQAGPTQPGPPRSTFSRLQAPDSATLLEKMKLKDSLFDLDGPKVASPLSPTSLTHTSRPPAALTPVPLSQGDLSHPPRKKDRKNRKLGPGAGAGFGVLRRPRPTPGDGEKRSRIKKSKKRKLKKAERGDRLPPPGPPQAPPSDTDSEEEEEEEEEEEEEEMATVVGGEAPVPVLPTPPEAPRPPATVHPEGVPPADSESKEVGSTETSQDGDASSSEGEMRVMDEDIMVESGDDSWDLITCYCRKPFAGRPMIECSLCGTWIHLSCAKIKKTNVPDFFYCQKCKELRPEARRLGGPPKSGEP

Columns and labels:
Experiment in all cases: log2 fold change, soluble protein after heating vs DMSO (PISA); higher = thermal stabilisation; K562 cells, 10 uM, 30 min; active = over 0.2 and 3.5 SD of the protein, either way, in both replicates (recomputed)
[1] = compound: COC1=CC=C(C=C1)CN2C=CC3=C2C=C(C=C3)C(=O)NO
Summary of the method: (§1)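 For each measurement, 10 μM compound was applied for 30 min to K562 cells at 2×10^6 cells/mL. Aliquots were heated for 3 min across 48°C-58°C, pooled, and extracted in PBS with 0.5% NP-40 at 4°C; the supernatant after 21,000xg for 90 min was soluble protein. This was quantified by TMTpro 16plex LC-MS/MS with channel sums equalised, and thermal stability was reported relative to control samples from duplicates, on a log2 fold-change scale.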

[2] = compound: CON(C)C(=O)N1N=C(c2cc(F)ccc2F)S[C@@]1(CCCN)c1ccccc1 [filanesib]
Summary of the method: as §1

[3] = compound: CO[C@H]1C[C@@H]2CC[C@@H](C)[C@@](O)(O2)C(=O)C(=O)N2CCCC[C@H]2C(=O)O[C@H]([C@H](C)C[C@@H]2CC[C@H](n3cnnn3)[C@H](OC)C2)CC(=O)[C@H](C)/C=C(\C)[C@@H](O)[C@@H](OC)C(=O)[C@H](C)C[C@H](C)/C=C/C=C/C=C/1C [zotarolimus]
Summary of the method: as §1

[4] = compound: COc1cc(C(=O)O)ccc1NC(=O)[C@@H]1N[C@@H](CC(C)(C)C)[C@](C#N)(c2ccc(Cl)cc2F)[C@H]1c1cccc(Cl)c1F [idasanutlin]
Summary of the method: as §1

[5] = compound: COc1cc(Nc2ncc3c(n2)-c2ccc(Cl)cc2C(c2c(F)cccc2OC)=NC3)ccc1C(=O)O [alisertib]
Summary of the method: as §1

[6] = compound: COc1cc2nc(-c3cc(F)ccc3O)nc(N[C@@H]3CNC[C@H]3C(C)(C)O)c2cc1OC
Summary of the method: as §1

[7] = compound: COc1cc2ncnc(Nc3ccc(F)c(Cl)c3)c2cc1OCCCN1CCOCC1 [gefitinib]
Summary of the method: as §1

[8] = compound: COc1cccc2cc(-c3nc([C@H]4CC[C@H](C(=O)O)CC4)n4ncnc(N)c34)[nH]c12
Summary of the method: as §1

[9] = compound: CS(=O)(=O)CCNCc1ccc(-c2ccc3ncnc(Nc4ccc(OCc5cccc(F)c5)c(Cl)c4)c3c2)o1 [lapatinib]
Summary of the method: as §1

[10] = compound: CS(=O)(=O)N1CCN(Cc2cc3nc(-c4cccc5[nH]ncc45)nc(N4CCOCC4)c3s2)CC1 [pictilisib]
Summary of the method: as §1

Row | Target | log2 fold change [1] | log2 fold change [2] | log2 fold change [3] | log2 fold change [4] | log2 fold change [5] | log2 fold change [6] | log2 fold change [7] | log2 fold change [8] | log2 fold change [9] | log2 fold change [10]
1 | PIP5K1A (UniProt Q99755) | inactive: -0.014 | inactive: 0 | inactive: 0 | inactive: 0.13 | inactive: 0.086 | inactive: -0.107 | inactive: -0.026 | inactive: 0.061 | inactive: 0.021 | inactive: 0.046
2 | PI4K2A (UniProt Q9BTU6) | inactive: 0.012 | inactive: -0.066 | inactive: -0.037 | inactive: -0.044 | inactive: -0.006 | inactive: -0.015 | inactive: -0.027 | inactive: 0.005 | inactive: 0 | inactive: 0.049
3 | PLEC (UniProt Q15149) | inactive: 0.111 | inactive: 0.118 | inactive: 0.057 | inactive: 0.218 | inactive: 0.011 | inactive: -0.017 | inactive: -0.04 | inactive: -0.11 | inactive: 0.036 | inactive: 0.064
4 | PIP4P2 (UniProt Q8N4L2) | inactive: 0.053 | active: -0.383 | inactive: 0.027 | inactive: 0.14 | inactive: 0.022 | inactive: 0.007 | inactive: 0.009 | inactive: -0.016 | inactive: 0.03 | inactive: 0.061
5 | PFAS (UniProt O15067) | inactive: 0.149 | inactive: -0.045 | inactive: 0.069 | inactive: 0.085 | inactive: 0.029 | inactive: 0.26 | inactive: -0.005 | inactive: 0.013 | inactive: -0.063 | active: -0.449
6 | PIN4 isoform 2 (UniProt Q9Y237) | inactive: 0.028 | inactive: 0.004 | inactive: 0.021 | inactive: -0.034 | inactive: -0.04 | inactive: 0.01 | inactive: 0 | inactive: 0.057 | inactive: -0.024 | inactive: 0.01
7 | PIGU (UniProt Q9H490) | inactive: -0.143 | inactive: -0.087 | inactive: 0.066 | inactive: -0.138 | inactive: -0.058 | inactive: -0.077 | inactive: 0.033 | inactive: -0.037 | inactive: 0.035 | inactive: -0.047
8 | PIK3C3 (UniProt Q8NEB9) | inactive: 0.049 | inactive: 0.221 | inactive: 0.016 | inactive: -0.055 | inactive: 0.011 | inactive: 0.172 | inactive: 0.062 | inactive: 0.007 | inactive: 0.021 | inactive: 0.094
9 | PGM2L1 (UniProt Q6PCE3) | inactive: -0.004 | inactive: -0.056 | inactive: -0.03 | inactive: -0.004 | inactive: -0.017 | inactive: 0.06 | inactive: 0.027 | inactive: 0.054 | inactive: -0.017 | inactive: 0.016
10 | PFDN4 (UniProt Q9NQP4) | inactive: -0.125 | inactive: 0.015 | inactive: 0.017 | inactive: 0.07 | inactive: -0.052 | inactive: 0.018 | inactive: -0.015 | inactive: 0.164 | inactive: 0.026 | inactive: 0.002
11 | PGAM1 (UniProt P18669) | inactive: -0.019 | inactive: -0.031 | inactive: -0.003 | inactive: 0.002 | inactive: -0.043 | inactive: -0.021 | inactive: 0.019 | inactive: 0.033 | inactive: -0.004 | inactive: 0.074
12 | PGAM4 (UniProt Q8N0Y7) | inactive: -0.039 | inactive: -0.018 | inactive: -0.016 | inactive: -0.025 | inactive: -0.042 | inactive: -0.025 | inactive: -0.022 | inactive: 0.039 | inactive: -0.021 | inactive: -0.016
13 | PIP4K2A (UniProt P48426) | inactive: 0.022 | inactive: 0.006 | inactive: -0.002 | inactive: -0.11 | inactive: -0.018 | active: 0.379 | inactive: 0.017 | inactive: 0.314 | inactive: -0.054 | inactive: 0.132
14 | PIGS (UniProt Q96S52) | inactive: -0.012 | inactive: 0.02 | inactive: -0.005 | inactive: -0.036 | inactive: -0.027 | inactive: 0.018 | inactive: -0.008 | inactive: -0.01 | inactive: 0.044 | inactive: -0.013
15 | PHF23 (UniProt Q9BUL5) | inactive: -0.029 | inactive: -0.057 | inactive: -0.011 | inactive: 0.018 | inactive: 0.007 | inactive: 0.023 | inactive: 0.042 | inactive: 0.06 | inactive: 0.01 | inactive: 0.063
